These results are taken from publication PMC8748510.

Results are given in words; binding and its absence hold for the method and conditions named. In cells and extracts the contact can be indirect. Binding calls can cover weak binding; strength is not graded here.

The assay has as its target T1, endogenous RNF12 (human (endogenous in MDA-MB-231)) (UniProt Q9NVW2).
T1 sequence: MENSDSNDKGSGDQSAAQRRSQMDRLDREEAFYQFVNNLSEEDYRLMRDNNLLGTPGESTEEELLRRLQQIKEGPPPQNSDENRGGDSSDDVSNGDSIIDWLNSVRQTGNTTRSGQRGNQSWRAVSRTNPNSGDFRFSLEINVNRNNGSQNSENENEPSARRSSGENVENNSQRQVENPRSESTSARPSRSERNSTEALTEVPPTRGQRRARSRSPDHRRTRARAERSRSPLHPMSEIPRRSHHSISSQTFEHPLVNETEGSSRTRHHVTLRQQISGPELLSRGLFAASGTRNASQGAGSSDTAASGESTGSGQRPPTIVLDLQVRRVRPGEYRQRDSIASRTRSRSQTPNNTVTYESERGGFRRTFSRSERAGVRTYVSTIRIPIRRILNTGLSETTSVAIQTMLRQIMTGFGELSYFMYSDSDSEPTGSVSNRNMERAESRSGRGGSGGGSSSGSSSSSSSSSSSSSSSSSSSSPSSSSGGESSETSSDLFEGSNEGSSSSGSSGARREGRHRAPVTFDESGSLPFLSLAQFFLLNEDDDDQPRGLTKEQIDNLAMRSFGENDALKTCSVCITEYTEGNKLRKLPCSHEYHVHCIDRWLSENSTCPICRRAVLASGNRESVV
Nature of the assay: co-IP; endogenous proteins, MDA-MB-231 cell lysates; immunoprecipitation with RNF12 antibody, immunoblotting with an AKT antibody. On the technique in general: In western blotting, separated proteins are transferred to a membrane and probed.

As for “endogenous AKT (human (endogenous in MDA-MB-231)) (enzyme)”, the binding result is “binds”.
